In assay [1] the target is T1, endogenous cGAS (pig (endogenous in PK15)) (UniProt I3LM39).
T1 sequence: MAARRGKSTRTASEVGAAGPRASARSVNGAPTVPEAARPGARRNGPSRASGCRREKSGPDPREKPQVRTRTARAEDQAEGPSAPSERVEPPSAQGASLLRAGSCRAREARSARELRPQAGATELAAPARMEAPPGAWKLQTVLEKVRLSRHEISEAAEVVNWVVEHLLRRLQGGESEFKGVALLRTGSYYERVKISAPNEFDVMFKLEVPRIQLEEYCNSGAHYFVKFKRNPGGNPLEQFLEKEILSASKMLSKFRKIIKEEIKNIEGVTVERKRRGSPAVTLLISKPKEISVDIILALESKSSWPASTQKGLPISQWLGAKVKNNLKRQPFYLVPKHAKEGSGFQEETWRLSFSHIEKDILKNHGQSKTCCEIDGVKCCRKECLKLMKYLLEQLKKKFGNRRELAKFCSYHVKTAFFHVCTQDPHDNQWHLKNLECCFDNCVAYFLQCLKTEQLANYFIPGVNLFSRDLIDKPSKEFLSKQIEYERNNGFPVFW
Description: co-IP.

Assay [2] concerns the target Myc-DDX56 (porcine DDX56, Myc tag) (porcine). Description: co-IP.

Drawing on article PMC9450509, this text covers binding for two molecules.

These are yes or no findings as the source states them, for the method shown. In cells and extracts the contact can be indirect. Binding can be weak; no strength is given. For some assays here: Tags and fused reporters may be left off the sequences shown.

Regarding Myc-DDX56 (porcine DDX56, Myc tag), the binding entry in assay [1] is “binds”.

B1: HA-cGAS (protein, UniProt I3LM39 1-495)
chain: MAARRGKSTRTASEVGAAGPRASARSVNGAPTVPEAARPGARRNGPSRASGCRREKSGPDPREKPQVRTRTARAEDQAEGPSAPSERVEPPSAQGASLLRAGSCRAREARSARELRPQAGATELAAPARMEAPPGAWKLQTVLEKVRLSRHEISEAAEVVNWVVEHLLRRLQGGESEFKGVALLRTGSYYERVKISAPNEFDVMFKLEVPRIQLEEYCNSGAHYFVKFKRNPGGNPLEQFLEKEILSASKMLSKFRKIIKEEIKNIEGVTVERKRRGSPAVTLLISKPKEISVDIILALESKSSWPASTQKGLPISQWLGAKVKNNLKRQPFYLVPKHAKEGSGFQEETWRLSFSHIEKDILKNHGQSKTCCEIDGVKCCRKECLKLMKYLLEQLKKKFGNRRELAKFCSYHVKTAFFHVCTQDPHDNQWHLKNLECCFDNCVAYFLQCLKTEQLANYFIPGVNLFSRDLIDKPSKEFLSKQIEYERNNGFPVFW
Regarding B1, the binding entry in assay [2] is recorded as “binds”.
